According to patent US20050234125A1, “Alpha-sulfonylamino-acetonitriles” (priority 2002, published 2005):
Some entries share one result that the patent states for a list of compounds. Some ranges recur; such a range may be that of the whole group of compounds.

Assays:
Plasmopara viticola [1] = experiment: D-1a residual-protective action against Plasmopara viticola on vines; format: in vivo; conditions: 200 ppm; test D-1a) residual-protective, vine seedlings
Plasmopara viticola [2] = experiment: D-1b residual-curative action against Plasmopara viticola on vines; format: in vivo; conditions: 200 ppm; test D-1b) residual-curative, vine seedlings
Phytophthora [3] = experiment: D-2a residual-protective action against Phytophthora on tomato plants; format: in vivo; conditions: 200 ppm; stands under D-2 (tomato), residual-protective; sentence prints 'tests D-1a) and D-1 b)'
Phytophthora [4] = experiment: D-2b systemic action against Phytophthora on tomato plants; format: in vivo; conditions: 200 ppm; stands under D-2 (tomato), systemic; sentence prints 'tests D-1a) and D-1 b)'
Phytophthora [5] = experiment: D-3b systemic action against Phytophthora on potato plants; conditions: 200 ppm; test D-3b) systemic, potato plants (Bintje)
Phytophthora [6] = experiment: D-3a residual-protective action against Phytophthora on potato plants; conditions: 200 ppm; test D-3a) residual-protective, potato plants (Bintje)

SMILES	inhibit fungal infestations (Plasmopara viticola [1])	inhibit fungal infestations (Plasmopara viticola [2])	inhibit fungal infestations (Phytophthora [3])	inhibit fungal infestations (Phytophthora [4])	inhibit fungal infestations (Phytophthora [5])	inhibit fungal infestations (Phytophthora [6])
CCC(C#N)(COc1ccc(I)cc1)NS(=O)(=O)Cc1ccccc1 (stereo not drawn) [compound 489]	80-100%	80-100%	80-100%	80-100%	60-100%	60-100%
CCC(=O)c1ccc(OCC(C#N)(CC)NS(=O)(=O)Cc2ccccc2)cc1 (stereo not drawn) [compound 514]	80-100%	80-100%	80-100%	80-100%	60-100%	60-100%
CCC(=O)c1ccc(OCC(C)(C#N)NS(=O)(=O)Cc2ccccc2)cc1 (stereo not drawn) [compound 517]	80-100%	80-100%	80-100%	80-100%	60-100%	60-100%
CC(=O)c1ccc(OCC(C)(C#N)NS(=O)(=O)Cc2ccccc2)cc1 (stereo not drawn) [compound 568]	80-100%	80-100%	80-100%	80-100%	60-100%	60-100%
